# Experimental data reported in PubChem BioAssay AID1345085 (National Center for Advancing Translational Sciences (NCATS), 2018).
# The shares of active, inactive and inconclusive entries below differ from those in the screen. Potencies beside an inconclusive call are fits to weak or partial responses and may not hold up. Activity calls are given as the source filed them. Calls follow the shape of the dose curve; as a rule, active = well fitted cell-killing curve with a large enough effect; inconclusive = small, poorly fitted or top-dose-only effect, or effect the other way; inactive = no such curve, though single readings can be large or run the other way.
# Tested on: Hek293T
# Experiment: Confirmatory qHTS for gynecologic anti-cancer compounds from libraries of approved drugs and bioactive compounds; also: nearly all actives have a fitted effect of over 55% in size
# Conditions: gynecologic cancer cell panel viability, ATPlite luminescence, 48 h; series mostly up to 57.6 µM
# Outline: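 ATPlite luminescence read-out of cell viability; IC50 from 11-point 1:3 titrations, 57.5 uM to 0.977 nM, 48 h compound exposure at 37 C, 5% CO2. Cells seeded at 1,000/well 16 h before dosing.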
# Potency is read from the fitted curve at half-maximal effect.
row,SMILES,Potency
1,COc1ccc(-c2cc3nccn3c(Nc3ncccc3C(N)=O)n2)cc1OC,"inconclusive: 19300 nM [cytotoxic, partial curve, poor fit]"
2,NS(=O)(=O)OC[C@@H]1C[C@@H](n2ccc3c(N[C@H]4CCc5ccccc54)ncnc32)C[C@@H]1O,"inconclusive: 1530 nM [cytotoxic, full curve]"
3,CCc1cccc(CC)c1NC(=O)N1Cc2[nH]nc(NC(=O)c3ccc(N4CCN(C)CC4)cc3)c2C1,inactive
4,CCn1c(-c2nonc2N)nc2c(C#CC(C)(C)O)ncc(OCC3CCCNC3)c21 (stereo not given),"inconclusive: 61.1 nM [cytotoxic, full curve, poor fit]"
5,CCC(=O)N1CCN(c2ccc(-n3c(=O)ccc4cnc5ccc(-c6cnc7ccccc7c6)cc5c43)cc2C(F)(F)F)CC1,active: 49.8 nM
6,CCCCN(CCCC)CC(O)c1cc(Cl)cc2c1-c1ccc(Cl)cc1/C2=C/c1ccc(Cl)cc1 (stereo not given),"inconclusive: 2430 nM [cytotoxic, full curve, poor fit]"
7,CN[C@@H](C)C(=O)N[C@H]1CN(C(=O)CC(C)C)CC[C@H]2CC[C@@H](C(=O)NC(c3ccccc3)c3ccccc3)N2C1=O,"inconclusive: 38.5 nM [cytotoxic, full curve]"
8,Cc1ccc(C(=O)Nc2cccc(C(F)(F)F)c2)cc1-c1ccc2nc(NCCN3CCOCC3)ncc2c1,active: 19300 nM
9,CC(C)Oc1ccc2c(=O)c(-c3ccccc3)coc2c1,active: 4850 nM
10,CCCc1nn(C)c2c(=O)[nH]c(-c3cc(S(=O)(=O)N4CCN(C)CC4)ccc3OCC)nc12,"inconclusive: 38500 nM [cytotoxic, single point]"

# Rewritten bar-delimited: part of the list above.
row | SMILES | Potency
6 | CCCCN(CCCC)CC(O)c1cc(Cl)cc2c1-c1ccc(Cl)cc1/C2=C/c1ccc(Cl)cc1 (stereo not given) | inconclusive: 2430 nM [cytotoxic, full curve, poor fit]
10 | CCCc1nn(C)c2c(=O)[nH]c(-c3cc(S(=O)(=O)N4CCN(C)CC4)ccc3OCC)nc12 | inconclusive: 38500 nM [cytotoxic, single point]
